Data as given in PubChem BioAssay AID602196 (INSERM, 2012)

Test: 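Modifiers of cisplatin sensitivity in A549 cells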
Cells: human A549 lung cancer cells
Reagent: siRNA pair against human genes
Time to read-out: 48 h transfection before cisplatin; time from cisplatin to read-out not stated
Challenge: cisplatin at a dose killing half of control-siRNA cells; exact dose and duration not given
Measured: 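Cisplatin cell death as a shift from the 50% death seen with control siRNA; siRNAs toxic or growth-blocking alone scored 0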
Scale: two-siRNA summed score (-2 to +2): higher = both siRNAs protect from cisplatin killing; -2 means both sensitise; mean protection from cisplatin (shift in death) and protection from cisplatin (shift in death), siRNA C: higher = protection from cisplatin killing
Active means: 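Each siRNA scores 0 if harmful alone by LDH or WST-1, otherwise +1 if it reduces and -1 if it increases cisplatin killing; a gene is active when both siRNAs agree (sum +2 or -2)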
Meaning of the calls: active = both siRNAs shift cisplatin killing the same way; inactive = no consistent shift, or siRNA harmful alone
Here is one part, drawn at random, of about 23,000 reagents. 455 of them (2%) count as active. 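Active includes both protection and sensitisation; some change values fall well beyond the stated -50 to +50 range.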 Unmarked entries are inactive. Reagents against one gene are numbered here. Further read-outs or replicates are left out here. The record does not give: the amount of reagent.

no.	gene	reagent	two-siRNA summed score (-2 to +2)	mean protection from cisplatin (shift in death) (%)	protection from cisplatin (shift in death), siRNA C (%)
1	LOC389390	1	0	-0.5	-2.6
2	CAMK2G (calcium/calmodulin dependent protein kinase II gamma)	1	0	-5	-4.9
3	LINC02239 (long independently transcribed non-coding RNA 2239)	1	0	-5.7	-15.2
4	LOC389858	1	0	5.7	3.2
5	ADAMTS17 (ADAM metallopeptidase with thrombospondin type 1 motif 17)	1	0	2.2	12.4
6	SYNE1 (spectrin repeat containing nuclear envelope protein 1)	1	-1	-1.2	19.2
7	DRICH1 (aspartate rich 1)	1	0	14.4	13.9
8	ALG9 (ALG9 alpha-1,2-mannosyltransferase)	1	0	4.8	4.9
9	HSFY1 (heat shock transcription factor Y-linked 1)	1	0	1.8	4
10	OR9A4 (olfactory receptor family 9 subfamily A member 4)	1	0	-5.3	-5.2
11	GOLIM4 (golgi integral membrane protein 4)	1	0	10.4	11.3
12	VAV2 (vav guanine nucleotide exchange factor 2)	1	0	17.6	5.5
13	LOC440773	1	0	14.6	11
14	PMP22 (peripheral myelin protein 22)	1	0	-6.5	-7.8
15	FLJ36157	1	0	8.7	8.6
16	HS3ST3A1 (heparan sulfate-glucosamine 3-sulfotransferase 3A1)	1	0	9.2	5.6
17	CLPB (ClpB family mitochondrial disaggregase)	1	0	-0.1	-1.1
18	VAX1 (ventral anterior homeobox 1)	1	0	4.3	6
19	CMKLR2 (chemerin chemokine-like receptor 2)	1	-1	-2.7	-11.8
20	LOC389827	1	1	8.7	3
21	CCND3 (cyclin D3)	1	1	19	21.1
22	TENT5C (terminal nucleotidyltransferase 5C)	1	0	-2	-4.4
23	BBX (BBX high mobility group box domain containing)	1	0	-8.6	-10.8
24	HRAS (HRas proto-oncogene, GTPase)	1	0	-16.8	-29.3
25	SPTLC1 (serine palmitoyltransferase long chain base subunit 1)	1	-1	-2.1	7.7
26	LOC441667	1	0	6.8	5
27	TMEM14A (transmembrane protein 14A)	1	1	10	11.4
28	SEC22C (SEC22 homolog C, vesicle trafficking protein)	1	0	1.4	-7.3
29	TAMALIN (trafficking regulator and scaffold protein tamalin)	1	0	11	9.1
30	GAB2 (GRB2 associated binding protein 2)	1	0	6.4	2.9
31	IGSF22 (immunoglobulin superfamily member 22)	1	0	4.2	12.5
32	PCDHGC4 (protocadherin gamma subfamily C, 4)	1	0	22	-2
33	VRK1 (VRK serine/threonine kinase 1)	1	0	10.1	13.2
34	CLDN22 (claudin 22)	1	1	22.4	29.3
35	RPS10 (ribosomal protein S10)	1	0	32.6	27
36	LARP1 (La ribonucleoprotein 1, translational regulator)	1	0	-2.9	-10.5
37	LARP1 (La ribonucleoprotein 1, translational regulator)	2	0	-2.5	-2.8
38	LOC440095	1	1	14.5	12.9
39	ITK (IL2 inducible T cell kinase)	1	2 (active)	18.1	22.6
40	SLITRK4 (SLIT and NTRK like family member 4)	1	0	3.3	3.1
41	RPL7A (ribosomal protein L7a)	1	0	16.8	12.8
42	HS6ST2 (heparan sulfate 6-O-sulfotransferase 2)	1	1	7.6	13.3
43	ERICH1 (glutamate rich 1)	1	-1	-12.9	-15.8
44	ARSJ (arylsulfatase family member J)	1	0	5.4	-1.5
45	IFI35 (interferon induced protein 35)	1	0	10.6	8.5
46	DHX29 (DExH-box helicase 29)	1	0	14.2	4.3
47	BLM (BLM RecQ like helicase)	1	0	16.8	29.7
48	PCDHB14 (protocadherin beta 14)	1	0	-3.9	1.6
49	CHMP7 (charged multivesicular body protein 7)	1	1	12.7	5.1
50	CELA2B (chymotrypsin like elastase 2B)	1	-1	-12.5	-7.1
51	MARCKSL1 (MARCKS like 1)	1	-1	-11.8	7.9
52	CFHR4 (complement factor H related 4)	1	1	12.2	18.5
53	PLCE1 (phospholipase C epsilon 1)	1	0	-4	-2.8
54	CXCL12 (C-X-C motif chemokine ligand 12)	1	0	-4.2	14.8
55	ACP1 (acid phosphatase 1)	1	-1	1	-10.4
56	ZHX3 (zinc fingers and homeoboxes 3)	1	0	1	-7
57	TCF19 (transcription factor 19)	1	0	-9.2	-2.6
58	EXT1 (exostosin glycosyltransferase 1)	1	0	8.3	17.1
59	GTF2A2 (general transcription factor IIA subunit 2)	1	1	5.7	-2.2
60	SPCS2P1 (signal peptidase complex subunit 2 pseudogene 1)	1	1	6.4	3.9
61	TIGD4 (tigger transposable element derived 4)	1	1	1.9	13
62	RANBP3L (RAN binding protein 3 like)	1	0	-0.1	-0.9
63	RAP1A (RAP1A, member of RAS oncogene family)	1	1	2.5	11.3
64	OR2B3 (olfactory receptor family 2 subfamily B member 3)	1	0	10.5	-2.8
65	NKX1-2 (NK1 homeobox 2)	1	0	24.2	-2
66	RAB11B (RAB11B, member RAS oncogene family)	1	-1	2.2	23.3
67	TNFRSF13B (TNF receptor superfamily member 13B)	1	0	3.2	8.7
68	LOC400818	1	0	4	7.8
69	NOMO1 (NODAL modulator 1)	1	0	9.7	5.4
70	POLDIP2 (DNA polymerase delta interacting protein 2)	1	0	-3.2	-3.6
71	AKR1C3 (aldo-keto reductase family 1 member C3)	1	-1	-13.8	-20.2
72	ABO	1	0	-3.9	-3.5
73	COX6B1 (cytochrome c oxidase subunit 6B1)	1	2 (active)	23.9	24.9

Laid out differently: 9 of the entries above
{"gene": "TAMALIN (trafficking regulator and scaffold protein tamalin)", "reagent": 1, "two-siRNA summed score (-2 to +2)": 0, "mean protection from cisplatin (shift in death) (%)": 11, "protection from cisplatin (shift in death), siRNA C (%)": 9.1}
{"gene": "GAB2 (GRB2 associated binding protein 2)", "reagent": 1, "two-siRNA summed score (-2 to +2)": 0, "mean protection from cisplatin (shift in death) (%)": 6.4, "protection from cisplatin (shift in death), siRNA C (%)": 2.9}
{"gene": "IGSF22 (immunoglobulin superfamily member 22)", "reagent": 1, "two-siRNA summed score (-2 to +2)": 0, "mean protection from cisplatin (shift in death) (%)": 4.2, "protection from cisplatin (shift in death), siRNA C (%)": 12.5}
{"gene": "PCDHGC4 (protocadherin gamma subfamily C, 4)", "reagent": 1, "two-siRNA summed score (-2 to +2)": 0, "mean protection from cisplatin (shift in death) (%)": 22, "protection from cisplatin (shift in death), siRNA C (%)": -2}
{"gene": "VRK1 (VRK serine/threonine kinase 1)", "reagent": 1, "two-siRNA summed score (-2 to +2)": 0, "mean protection from cisplatin (shift in death) (%)": 10.1, "protection from cisplatin (shift in death), siRNA C (%)": 13.2}
{"gene": "CLDN22 (claudin 22)", "reagent": 1, "two-siRNA summed score (-2 to +2)": 1, "mean protection from cisplatin (shift in death) (%)": 22.4, "protection from cisplatin (shift in death), siRNA C (%)": 29.3}
{"gene": "RPS10 (ribosomal protein S10)", "reagent": 1, "two-siRNA summed score (-2 to +2)": 0, "mean protection from cisplatin (shift in death) (%)": 32.6, "protection from cisplatin (shift in death), siRNA C (%)": 27}
{"gene": "LARP1 (La ribonucleoprotein 1, translational regulator)", "reagent": 1, "two-siRNA summed score (-2 to +2)": 0, "mean protection from cisplatin (shift in death) (%)": -2.9, "protection from cisplatin (shift in death), siRNA C (%)": -10.5}
{"gene": "LARP1 (La ribonucleoprotein 1, translational regulator)", "reagent": 2, "two-siRNA summed score (-2 to +2)": 0, "mean protection from cisplatin (shift in death) (%)": -2.5, "protection from cisplatin (shift in death), siRNA C (%)": -2.8}
